# Source: the supplement of paper PMC8728848
# The list shows a part of the results.
# B1: GroEL (Clostridium difficile), Q18CT5 (protein)
# chain: MAKEIKFSEETRRALEAGVNKLADTVKVTLGPKGRNVILDKKFGSPLITNDGVTIAKEIELEDRFENMGAQLVKEVATKTNDVAGDGTTTATVLAQAIIREGLKNVTAGANPILLRKGIQKAVTVAVEELKNQSRIVETQEAISQVASISAGDEEVGKLIAEAMEIVGKDGVITVEESQTMNTELDAVEGMQFDRGFVSAYMVTDVDKMEAVLNDPYILITDKKISNIQELLPVLEQIVQQGKKLLIIAEDVEGEALSTLVVNKLRGTFDVVAVKAPGFGDRRKEMLQDIAILTGAQVISEELGYDLKEADLSMLGRASSVKVTKESTTIVDGSGDKKAIEDRVTQIKHQVEQTTSDFDREKLMERLAKLAGGVAVVKVGAATEVELKERKLRIEDALNATRAAVEEGIVAGGGTAFVSVIPAIGTLIESLEGEVKLGAQIVKKALEEPLRQIAINAGLEGAVIVQNVVNSEAETGFDALNEKYVNMIEAGIVDPTKVSRSALQNAASIASTFLTTEAAVADLPEKEDAGMPGMGGGMPGMM
# Assays:
# Test in all cases: glycan array binding signal (z-score within array); higher = stronger binding
# Settings in all cases: glycan notation: IUPAC condensed, linker removed
# Fuc(a1-2)Gal = target: Fuc(a1-2)Gal
# In short: (§1)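 Glycan array data were curated from 3228 arrays in the Consortium for Functional Glycomics database and kept only where the protein sequence was available. Glycan names were converted to IUPAC-condensed notation, and columns mapping to the same glycan were averaged. The binding signal is a within-array Z-score, averaged across arrays of the same protein sequence at different concentrations or buffers and across linkers. Negative Z-scores can be read as non-binding.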
# Fuc(a1-2)Gal(b1-3)GalNAc = target: Fuc(a1-2)Gal(b1-3)GalNAc
# In short: as §1
# [1] = target: Fuc(a1-2)Gal(b1-3)GalNAc(a1-3)[Fuc(a1-2)]Gal(b1-4)Glc
# In short: as §1
# [2] = target: Fuc(a1-2)Gal(b1-3)GalNAc(a1-3)[Fuc(a1-2)]Gal(b1-4)GlcNAc
# In short: as §1
# [3] = target: Fuc(a1-2)Gal(b1-3)GalNAc(b1-3)Gal
# In short: as §1
# [4] = target: Fuc(a1-2)Gal(b1-3)GalNAc(b1-3)Gal(a1-4)Gal(b1-4)Glc
# In short: as §1
# [5] = target: Fuc(a1-2)Gal(b1-3)GalNAc(b1-4)[Neu5Ac(a2-3)]Gal(b1-4)Glc
# In short: as §1
# Fuc(a1-2)Gal(b1-3)GlcNAc = target: Fuc(a1-2)Gal(b1-3)GlcNAc
# In short: as §1
# [6] = target: Fuc(a1-2)Gal(b1-3)GlcNAc(b1-2)Man(a1-3)[Fuc(a1-2)Gal(b1-3)GlcNAc(b1-2)Man(a1-6)]Man(b1-4)GlcNAc(b1-4)GlcNAc
# In short: as §1
# [7] = target: Fuc(a1-2)Gal(b1-3)GlcNAc(b1-2)Man(a1-3)[Fuc(a1-2)Gal(b1-3)GlcNAc(b1-2)Man(a1-6)]Man(b1-4)GlcNAc(b1-4)[Fuc(a1-6)]GlcNAc
# In short: as §1
# [8] = target: Fuc(a1-2)Gal(b1-3)GlcNAc(b1-3)Gal(b1-4)Glc
# In short: as §1
# [9] = target: Fuc(a1-2)Gal(b1-3)GlcNAc(b1-3)GalNAc
# In short: as §1
# [10] = target: Fuc(a1-2)Gal(b1-3)GlcNAc(b1-3)[Fuc(a1-2)Gal(b1-3)GlcNAc(b1-6)]GalNAc
# In short: as §1
# [11] = target: Fuc(a1-2)Gal(b1-3)GlcNAc(b1-3)[Gal(b1-4)GlcNAc(b1-6)]Gal(b1-4)Glc
# In short: as §1
# [12] = target: Fuc(a1-2)Gal(b1-3)GlcNAc(b1-3)[Neu5Ac(a2-6)Gal(b1-4)GlcNAc(b1-6)]Gal(b1-4)Glc
# In short: as §1
# [13] = target: Fuc(a1-2)Gal(b1-3)GlcNAc6S
# In short: as §1
# [14] = target: Fuc(a1-2)Gal(b1-3)[Fuc(a1-4)]GlcNAc
# In short: as §1
# [15] = target: Fuc(a1-2)Gal(b1-3)[Fuc(a1-4)]GlcNAc(b1-2)Man(a1-3)[Fuc(a1-2)Gal(b1-3)[Fuc(a1-4)]GlcNAc(b1-2)Man(a1-3)]Man(b1-4)GlcNAc(b1-4)GlcNAc
# In short: as §1
# [16] = target: Fuc(a1-2)Gal(b1-3)[Fuc(a1-4)]GlcNAc(b1-2)Man(a1-3)[Fuc(a1-2)Gal(b1-3)[Fuc(a1-4)]GlcNAc(b1-2)Man(a1-6)]Man(b1-4)GlcNAc(b1-4)[Fuc(a1-6)]GlcNAc(b1-4)[Fuc(a1-6)]GlcNAc
# In short: as §1
# [17] = target: Fuc(a1-2)Gal(b1-3)[Fuc(a1-4)]GlcNAc(b1-3)[Fuc(a1-3)[Gal(b1-4)]GlcNAc(b1-6)]Gal(b1-4)Glc
# In short: as §1
# [18] = target: Fuc(a1-2)Gal(b1-3)[Fuc(a1-4)]GlcNAc(b1-3)[Gal(b1-4)GlcNAc(b1-6)]Gal(b1-4)Glc
# In short: as §1
# Fuc(a1-2)Gal(b1-4)Glc = target: Fuc(a1-2)Gal(b1-4)Glc
# In short: as §1
# Fuc(a1-2)Gal(b1-4)Glc6S = target: Fuc(a1-2)Gal(b1-4)Glc6S
# In short: as §1
# Fuc(a1-2)Gal(b1-4)GlcNAc = target: Fuc(a1-2)Gal(b1-4)GlcNAc
# In short: as §1
# [19] = target: Fuc(a1-2)Gal(b1-4)GlcNAc(b1-2)Man
# In short: as §1
# [20] = target: Fuc(a1-2)Gal(b1-4)GlcNAc(b1-2)Man(a1-3)[Fuc(a1-2)Gal(b1-4)GlcNAc(b1-2)Man(a1-6)]Man(b1-4)GlcNAc(b1-4)GlcNAc
# In short: as §1
# [21] = target: Fuc(a1-2)Gal(b1-4)GlcNAc(b1-2)Man(a1-3)[Fuc(a1-2)Gal(b1-4)GlcNAc(b1-2)Man(a1-6)]Man(b1-4)GlcNAc(b1-4)[Fuc(a1-6)]GlcNAc
# In short: as §1
# [22] = target: Fuc(a1-2)Gal(b1-4)GlcNAc(b1-2)[Fuc(a1-2)Gal(b1-4)GlcNAc(b1-4)]Man(a1-3)[Fuc(a1-2)Gal(b1-4)GlcNAc(b1-2)Man(a1-6)]Man(b1-4)GlcNAc(b1-4)GlcNAc
# In short: as §1
# [23] = target: Fuc(a1-2)Gal(b1-4)GlcNAc(b1-3)Gal(b1-4)GlcNAc
# In short: as §1
# [24] = target: Fuc(a1-2)Gal(b1-4)GlcNAc(b1-3)Gal(b1-4)GlcNAc(b1-2)Man(a1-3)[Fuc(a1-2)Gal(b1-4)GlcNAc(b1-3)Gal(b1-4)GlcNAc(b1-2)Man(a1-6)]Man(b1-4)GlcNAc(b1-4)GlcNAc
# In short: as §1
binder,measurement,setting,value
B1,glycan array binding signal (z-score),Fuc(a1-2)Gal,0.721
same,glycan array binding signal (z-score),Fuc(a1-2)Gal(b1-3)GalNAc,0.484
same,glycan array binding signal (z-score),[1],1.24
same,glycan array binding signal (z-score),[2],-0.541
same,glycan array binding signal (z-score),[3],-0.678
same,glycan array binding signal (z-score),[4],1.31
same,glycan array binding signal (z-score),[5],0.152
same,glycan array binding signal (z-score),Fuc(a1-2)Gal(b1-3)GlcNAc,0.168
same,glycan array binding signal (z-score),[6],3.73
same,glycan array binding signal (z-score),[7],-0.071
same,glycan array binding signal (z-score),[8],0.433
same,glycan array binding signal (z-score),[9],-0.274
same,glycan array binding signal (z-score),[10],0.68
same,glycan array binding signal (z-score),[11],-0.885
same,glycan array binding signal (z-score),[12],-0.133
same,glycan array binding signal (z-score),[13],-1.02
same,glycan array binding signal (z-score),[14],0.147
same,glycan array binding signal (z-score),[15],0.895
same,glycan array binding signal (z-score),[16],1.04
same,glycan array binding signal (z-score),[17],0.284
same,glycan array binding signal (z-score),[18],0.461
same,glycan array binding signal (z-score),Fuc(a1-2)Gal(b1-4)Glc,2.35
same,glycan array binding signal (z-score),Fuc(a1-2)Gal(b1-4)Glc6S,-0.549
same,glycan array binding signal (z-score),Fuc(a1-2)Gal(b1-4)GlcNAc,-0.198
same,glycan array binding signal (z-score),[19],0.115
same,glycan array binding signal (z-score),[20],2.28
same,glycan array binding signal (z-score),[21],0.181
same,glycan array binding signal (z-score),[22],-1.45
same,glycan array binding signal (z-score),[23],-0.499
same,glycan array binding signal (z-score),[24],1.19
